Consider four molecules from article PMC12283572.

In assay [1] the target is Irgb10 (Yeast Two-Hybrid fusion) (mouse). Description: two-hybrid; S. cerevisiae PJ69-4α; Gal4 AD and BD fusions; colony growth on SD/-Leu/-Trp/-His with 0.5 mM 3-AT, 30°C, 5 to 14 days.
Assay [2] addresses Irgb10 (β-lactamase fragment fusion for PCA) (mouse). Description: split reporter; Protein-fragment complementation assay (PCA): proteins fused to BlaN or BlaC fragments of TEM-1 β-lactamase, co-transfected in HEK293T cells, lysed 24 h later; nitrocefin hydrolysis in the supernatant read as absorbance at 495 nm.

Results are given in words; binding and its absence hold for the method and conditions named. Binding can be weak; no strength is given. Tags and fused reporters may be left off the sequences shown. For some of these results: Binding seen in cells or lysates may run through a third protein.

B1: GBP6 (Yeast Two-Hybrid fusion) (protein, UniProt A0A0G2JDV3 1-611)
chain: MTQPQMAPICLVENHNEQLSVNQEAIEILDKISQPVVVVAIVGLYRTGKSYLMNCLAGQNHGFPLGSTVQSQTKGIWMWCMPHPTKPEHTLVLLDTEGLGDVEKGDPKNDLWIFALSVLLSSTFIYNSMITINHQALEQLQYVTELTELIRAKSSPNPAGIKNSTEFVSFFPDFVWTVRDFMLELKLNGEDITSDDYLENALKLIPGDKPRMQASNSCRECIRLFFPNRKCFVFDRPTHDKELLQKLDSITEDQLDPKFQEVTKAFVSYIFTYAKIKTLKEGIKVTGNRLGILVTTYVNAINSGAVPCLDDAVTTLAQRENSVAVQKAADHYSEQMAQRLRLPTETLQELLDVHAACEKEAMAVFMEHSFKDENQQFLKKLVELIGENKELFLSKNEEASNKYCQEELDRLSKDFMENISTFFVPCGHKLYMDKREKIEHDYWQVPRKGVKASEVFQSFLQSQAFIESSILQADTALTAGEKAIAEERAQKVAAEKEQELLRQKQKEQQEYMEAQEKSHKENLEQLRRKLEQEREQDIKDHDMMLKKLMKDQKAFLEEGFKKKAEEMNKEIQQLRDVIKDKKRNTDRIKEALLNGFSTVLFHYLVRYLKHL
In the case of B1, the binding result in assay [1] is recorded as “binds”.

B2: GBP6 (β-lactamase fragment fusion for PCA) (protein, UniProt A0A0G2JDV3 1-611)
chain: B1 chain
B2: the binding entry in assay [2] is “binds”.

B3: GBP5 (Yeast Two-Hybrid fusion) (protein, UniProt Q8CFB4 1-590)
chain: MAPEIHMPEPLCLIGSTEGHLVTNQEALKILSAITQPVVVVAIVGLYRTGKSYLMNKLAGKEKGFSVGSTVQSHTKGIWMWCVPHPQKPDHTLVLLDTEGLGDVEKDDKKNDTQIFALAILLSSTFVYNTMNKIDQGAIDLLHNVTELTDLLRTRNSSDSNQTEGEGPADMSFFPDLVWTLRDFFLDLQANGHAITSDEYLENSLKLKQGSDERTQTFNLPRLCIQKFFPVKKCFVFDAPALGSKLSQLPTLSNEELNSDFVQDLSEFCSHIFTQSKTKTLPGGIQVNGPRLESLVLTYVDAINSGALPSIENTVVTLARRENSAAVQKAIGHYDQLMSEKVQLPTETLQELLDLHRTCEREAIEIFRKHSFKDEGEFFQKELESLLSAKQDEICKKNADASAALCSTLLGSIFKPLEQEVAQEFYHKPGGHKLFLQRMEQLKANYRQQPGKGTQAEEVLQTYLNAKETVSRTILQTDQVLTDKEIQSKAEQERAEAARLEAQRLEAIRIQEEQRKAEMERQHQEQLRQIALEKARVAQEQQWILKQRAQEEADRIKAEQEAQLRALQQQLQHMREMNHHRRHHHDCVIS
As to B3, the binding result in assay [1] is reported as “binds”.

B4: GBP5 (β-lactamase fragment fusion for PCA) (protein, UniProt Q8CFB4 1-590)
chain: B3 chain
Take B4: the binding result in assay [2] is listed as “binds”.
